Experimental data taken from patent US10426758B2, “Sibiriline derivatives for use for preventing and/or treating disorders associated with cellular necroptosis” (Institut National de la Sante et de la Recherche Medicale …, priority 2015, dated 2019).
At least one compound was matched to its structure with a doubt left.

System: Jurkat FADD-deficient I 2.1 cell line
Experiment: Cell-based screening: TNF-α-induced necroptosis in Jurkat FADD-deficient cells, MTS viability assay
Details: human T lymphocyte
Source text: TNF-α can induce necroptosis in Jurkat cells (human T lymphocytes) when FADD is deleted. This model was used to screen various libraries of chemical compounds for characterization of new inhibitors of cellular necroptosis. Details on this cell-based assay can be found in (Miao and Degterev, Methods Mol. Biol. 2009, 559, 79-93). The Jurkat FADD-deficient I 2.1 cell line used was purchased from ATCC and was maintained in RPMI 1640 medium (Gibco) containing Glutamax and 15% fetal calf serum (Life Technology). Necroptosis was induced by addition of 10 ng/ml of human recombinant TNF-α (Life Technology). Necrostatin-1 (Nec-1, Enzo Life Sciences) was used as model necroptosis inhibitor. Cells were maintained in 75 cm^2 flask and passed every 2 or 3 days. Chemical collections analysed were formatted in 96-well plates with 80 molecules per plates at 10 mM in 100% DMSO. For each collection plate, 2 cell plates were seeded (one necroptosis-induced with TNF-α and the other without TNF-α). Cells were seeded at 20000 cells/well, in 40 μl of medium, in a 96-well clear, flat bottom plate (CytoOne, Starlab) before treatment. Then, 40 μl of medium with or without TNF-α at 25 ng/ml were added to all wells in the corresponding plate. Immediately after TNF-α addition, 20 μl of diluted compound at 50 μM were added to the plates. Final concentration of each chemical compound was 10 μM at 0.1% DMSO. […]

Structure (SMILES)	inhibition of necroptosis induced by TNF-α (figure legend)
c1cnc2[nH]c(-c3ccc4c(c3)OCCO4)cc2c1 [compound 5, 2-(1,4-benzodioxanyl)-1H-pyrrolo[2,3-b]pyridine]	dose-dependent inhibition
c1cnc2[nH]c(-c3ccc4c(c3)OCO4)cc2c1 [compound 6]	dose-dependent inhibition
